Experimental data: PubChem BioAssay AID1671195 (Yale University, 2021)
This is a random part of about 22,000 deposited reagents. Over the whole deposit, about 1,510 (6.9%) got an active call. 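Active includes knockdowns raising or lowering LDL uptake; positive z-scores mean more uptake, negative mean less.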 A number with no mark means an inactive call. Reagent sequences are not shown.

Aim: 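Knockdowns that increase or decrease uptake of fluorescent LDL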 (primary screen)
System: human Huh7 hepatoma cells
Reagent: siRNA pool against human genes, 18 nM
Timing: about 2 to 2.5 days of knockdown, then 8 h LDL uptake
Treatment: DiI-labelled LDL at 30 µg/ml for 8 h, in lipoprotein-deficient serum medium
Read-out: 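Per-cell DiI-LDL intensity by automated imaging; well means scaled to the plate median and given as a robust z-score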
Reading the numbers: robust z-score: higher = more LDL uptake after knockdown
Hit rule: 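a gene counts as active if at least two replicate z-scores exceed ±2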

Silencing of ZNF565 gave: robust z-score, replicate 1 = 2.12 (active); robust z-score, replicate 2 = 1.34; robust z-score, replicate 3 = 2.3. BMP4 gave robust z-score, replicate 1 = 1.64; robust z-score, replicate 2 = -0.143; robust z-score, replicate 3 = 2.53. With knock-down of GPR107 the results were robust z-score, replicate 1 = 0.757; robust z-score, replicate 2 = 2.08; robust z-score, replicate 3 = 1.53. Knock-down of GRK2 gave: robust z-score, replicate 1 = 1.71; robust z-score, replicate 2 = 1.03; robust z-score, replicate 3 = -0.379. Against TMEM25, the values are robust z-score, replicate 1 = -1.61; robust z-score, replicate 2 = -0.888; robust z-score, replicate 3 = -0.995. Against MRPS18C, the values are robust z-score, replicate 1 = 0.247; robust z-score, replicate 2 = 0.0674; robust z-score, replicate 3 = -2.52.

After knock-down of LDHA, the screen gave robust z-score, replicate 1 = -0.00179; robust z-score, replicate 2 = -0.176; robust z-score, replicate 3 = -0.461. Depletion of FRG1 came out at: robust z-score, replicate 1 = 0.016; robust z-score, replicate 2 = -0.928; robust z-score, replicate 3 = -0.264. With knock-down of RARS1 the results were robust z-score, replicate 1 = -0.0629; robust z-score, replicate 2 = -0.335; robust z-score, replicate 3 = -0.239. Against FLNA the deposit lists robust z-score, replicate 1 = 3.89 (active); robust z-score, replicate 2 = 4.39; robust z-score, replicate 3 = 2.17.

Ordered by “robust z-score, replicate 2” (descending): some entries from above.
LDHA — robust z-score, replicate 1: -0.00179; robust z-score, replicate 2: -0.176; robust z-score, replicate 3: -0.461
RARS1 — robust z-score, replicate 1: -0.0629; robust z-score, replicate 2: -0.335; robust z-score, replicate 3: -0.239
FRG1 — robust z-score, replicate 1: 0.016; robust z-score, replicate 2: -0.928; robust z-score, replicate 3: -0.264

Additional reagents follow:
Silencing of LOC388589 (retired record) came out at: robust z-score, replicate 1 = -0.576; robust z-score, replicate 2 = -0.0453; robust z-score, replicate 3 = -0.677. TRIM48 scored robust z-score, replicate 1 = -0.488; robust z-score, replicate 2 = 0.959; robust z-score, replicate 3 = 1.21. After knock-down of ZNF367 the results were robust z-score, replicate 1 = -0.667; robust z-score, replicate 2 = -0.692; robust z-score, replicate 3 = -1.4. After knock-down of RIT2, the screen gave robust z-score, replicate 1 = 0.695; robust z-score, replicate 2 = -1.03; robust z-score, replicate 3 = -0.383. After knock-down of GULP1 the results were robust z-score, replicate 1 = -2.44 (active); robust z-score, replicate 2 = -1.11; robust z-score, replicate 3 = -2.51. With knock-down of CGAS, the screen gave robust z-score, replicate 1 = -0.0942; robust z-score, replicate 2 = -0.495; robust z-score, replicate 3 = -0.53.

Against TBX2, the entry reads robust z-score, replicate 1 = -1.55; robust z-score, replicate 2 = -1.22; robust z-score, replicate 3 = -1.1. Knock-down of MYL12BP3 resulted in: robust z-score, replicate 1 = 2.67 (active); robust z-score, replicate 2 = 2.48; robust z-score, replicate 3 = 2.52. ADAMTSL3 scored robust z-score, replicate 1 = 0.905; robust z-score, replicate 2 = 0.954; robust z-score, replicate 3 = 0.713. After knock-down of PPP4R3A, the screen gave robust z-score, replicate 1 = 0.524; robust z-score, replicate 2 = 1.48; robust z-score, replicate 3 = 1.73. After knock-down of ATP13A5, the record shows robust z-score, replicate 1 = 0.571; robust z-score, replicate 2 = 0.0258; robust z-score, replicate 3 = 0.191. Against PPM1L, the values are robust z-score, replicate 1 = 1.11; robust z-score, replicate 2 = 1.48; robust z-score, replicate 3 = 1.33.

MCOLN2 scored robust z-score, replicate 1 = 0.882; robust z-score, replicate 2 = 0.311; robust z-score, replicate 3 = 0.874. Depletion of LOC400464 gave: robust z-score, replicate 1 = -0.616; robust z-score, replicate 2 = 0.431; robust z-score, replicate 3 = 0.178.
